{
  "source": "patent US20090192220A1",
  "about": "“TREATMENT FOR SOLID TUMORS” (Ore Pharmaceuticals Inc., priority 2007, published 2009)",
  "origin": "cited, not measured here",
  "system": "ACAT",
  "conditions": "de Médina et al. (2004), cited from earlier work",
  "data": [
    {"smiles": "CC/C(=C(\\c1ccccc1)c1ccc(OCCN(C)C)cc1)c1ccccc1", "note": "[tamoxifen]", "values": [
      {"measurement": "IC50", "setting": "read-out: IC50 for ACAT", "value": 6.74, "unit": "µM"},
      {"measurement": "Kd", "setting": "read-out: affinity for ACAT (Kd)", "value": 6.74, "unit": "µM"}
    ]}
  ]
}
